Reference: patent EP4545090A1 (Universität Leipzig, dated 2025)
These are yes or no findings as the source states them, for the method shown. Binding seen in cells or lysates may run through a third protein. Some results given as binding are weak or reduced against the parent protein; the word gives no strength.

Target: T1, IFNAR1, mouse, endogenous in heart tissue (mouse) (UniProt P33896)
T1 sequence (looked up): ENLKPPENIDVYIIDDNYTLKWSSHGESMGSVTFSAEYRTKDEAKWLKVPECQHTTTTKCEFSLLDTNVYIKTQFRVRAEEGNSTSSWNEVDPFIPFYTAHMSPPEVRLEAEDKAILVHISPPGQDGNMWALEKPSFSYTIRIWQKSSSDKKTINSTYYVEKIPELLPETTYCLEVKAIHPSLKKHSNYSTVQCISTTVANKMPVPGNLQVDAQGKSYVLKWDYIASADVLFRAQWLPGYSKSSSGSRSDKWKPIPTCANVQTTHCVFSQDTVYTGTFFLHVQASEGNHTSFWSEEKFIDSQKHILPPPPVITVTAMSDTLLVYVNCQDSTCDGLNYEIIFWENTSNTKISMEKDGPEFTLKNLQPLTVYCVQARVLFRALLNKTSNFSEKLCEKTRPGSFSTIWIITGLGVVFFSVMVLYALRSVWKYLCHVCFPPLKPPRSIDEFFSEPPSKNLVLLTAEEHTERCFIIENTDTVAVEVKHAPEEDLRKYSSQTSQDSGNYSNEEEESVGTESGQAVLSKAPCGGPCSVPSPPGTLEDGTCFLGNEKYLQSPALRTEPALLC
Assay: TF co-immunoprecipitation from mouse heart lysates, immunoblot

binding: binds
B1: TF, mouse, endogenous in heart tissue (receptor, UniProt P20352 29-294, looked up)
chain: AGIPEKAFNLTWISTDFKTILEWQPKPTNYTYTVQISDRSRNWKNKCFSTTDTECDLTDEIVKDVTWAYEAKVLSVPRRNSVHGDGDQLVIHGEEPPFTNAPKFLPYRDTNLGQPVIQQFEQDGRKLNVVVKDSLTLVRKNGTFLTLRQVFGKDLGYIITYRKGSSTGKKTNITNTNEFSIDVEEGVSYCFFVQAMIFSRKTNQNSPGSSTVCTEQWKSFLGETLIIVGAVVLLATIFIILLSISLCKRRKNRAGQKGKNTPSRLA
